The supplement of paper PMC12819154, “High-throughput peptide-centric local stability assay extends protein–ligand identification to membrane proteins, tissues and bacteria” (Nature Structural & Molecular Biology, 2025)
The other results are listed elsewhere or left out. Most values lie at the level of the controls, where differences are scatter.

By UniProt entry, the sequences of proteins in these tests, tags left out. Where a name states a change or a piece, a line headed by the entry shows the natural chain unless it says otherwise.
UniProt O60493, whole entry: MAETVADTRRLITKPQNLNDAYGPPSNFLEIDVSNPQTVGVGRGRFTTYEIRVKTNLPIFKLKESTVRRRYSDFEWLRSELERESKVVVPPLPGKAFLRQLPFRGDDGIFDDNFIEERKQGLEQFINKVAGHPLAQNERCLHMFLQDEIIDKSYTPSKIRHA
UniProt O43318: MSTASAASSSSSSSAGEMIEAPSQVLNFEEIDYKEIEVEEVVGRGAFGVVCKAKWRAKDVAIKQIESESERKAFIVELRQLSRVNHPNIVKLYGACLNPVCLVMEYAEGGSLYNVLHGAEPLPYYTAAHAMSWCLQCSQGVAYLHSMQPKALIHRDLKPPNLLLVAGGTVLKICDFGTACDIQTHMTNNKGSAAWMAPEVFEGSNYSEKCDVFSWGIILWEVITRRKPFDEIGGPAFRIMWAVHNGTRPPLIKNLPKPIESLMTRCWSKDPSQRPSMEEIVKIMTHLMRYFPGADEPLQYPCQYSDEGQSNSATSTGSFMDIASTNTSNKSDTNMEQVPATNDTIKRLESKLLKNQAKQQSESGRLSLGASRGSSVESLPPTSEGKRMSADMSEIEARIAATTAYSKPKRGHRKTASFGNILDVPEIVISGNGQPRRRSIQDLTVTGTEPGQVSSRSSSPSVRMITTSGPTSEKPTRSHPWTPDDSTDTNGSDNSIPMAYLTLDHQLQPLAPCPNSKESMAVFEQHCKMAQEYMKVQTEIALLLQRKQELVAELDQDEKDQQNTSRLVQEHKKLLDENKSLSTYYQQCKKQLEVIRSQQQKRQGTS
UniProt O43491, whole entry: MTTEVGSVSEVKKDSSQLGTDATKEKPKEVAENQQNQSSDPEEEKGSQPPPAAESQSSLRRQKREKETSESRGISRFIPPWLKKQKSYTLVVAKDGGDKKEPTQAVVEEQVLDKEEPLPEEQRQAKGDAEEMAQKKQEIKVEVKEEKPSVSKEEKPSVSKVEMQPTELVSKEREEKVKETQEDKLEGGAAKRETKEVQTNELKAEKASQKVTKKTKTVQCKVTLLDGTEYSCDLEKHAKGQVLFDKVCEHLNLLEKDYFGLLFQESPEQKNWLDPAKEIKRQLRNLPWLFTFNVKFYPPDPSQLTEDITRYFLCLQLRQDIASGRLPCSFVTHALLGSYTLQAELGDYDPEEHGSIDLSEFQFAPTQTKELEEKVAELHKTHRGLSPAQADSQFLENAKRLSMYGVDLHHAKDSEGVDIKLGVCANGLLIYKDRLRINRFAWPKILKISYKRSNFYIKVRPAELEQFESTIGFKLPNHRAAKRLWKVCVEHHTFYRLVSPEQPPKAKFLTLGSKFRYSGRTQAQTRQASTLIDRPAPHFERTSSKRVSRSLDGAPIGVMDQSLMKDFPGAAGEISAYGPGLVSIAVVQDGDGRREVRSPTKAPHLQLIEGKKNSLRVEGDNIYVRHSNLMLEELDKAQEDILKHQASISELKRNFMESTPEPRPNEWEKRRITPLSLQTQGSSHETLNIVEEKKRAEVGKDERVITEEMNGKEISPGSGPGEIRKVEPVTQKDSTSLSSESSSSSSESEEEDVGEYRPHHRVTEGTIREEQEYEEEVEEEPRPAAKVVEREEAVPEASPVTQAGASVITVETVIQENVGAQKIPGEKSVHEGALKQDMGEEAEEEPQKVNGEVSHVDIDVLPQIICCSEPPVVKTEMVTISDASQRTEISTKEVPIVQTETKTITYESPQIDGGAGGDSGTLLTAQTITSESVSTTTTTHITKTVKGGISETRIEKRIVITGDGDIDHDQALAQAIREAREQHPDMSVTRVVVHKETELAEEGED
UniProt O43805: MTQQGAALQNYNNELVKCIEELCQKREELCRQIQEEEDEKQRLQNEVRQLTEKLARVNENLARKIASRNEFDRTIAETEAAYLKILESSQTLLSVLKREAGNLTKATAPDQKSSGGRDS
UniProt O60890: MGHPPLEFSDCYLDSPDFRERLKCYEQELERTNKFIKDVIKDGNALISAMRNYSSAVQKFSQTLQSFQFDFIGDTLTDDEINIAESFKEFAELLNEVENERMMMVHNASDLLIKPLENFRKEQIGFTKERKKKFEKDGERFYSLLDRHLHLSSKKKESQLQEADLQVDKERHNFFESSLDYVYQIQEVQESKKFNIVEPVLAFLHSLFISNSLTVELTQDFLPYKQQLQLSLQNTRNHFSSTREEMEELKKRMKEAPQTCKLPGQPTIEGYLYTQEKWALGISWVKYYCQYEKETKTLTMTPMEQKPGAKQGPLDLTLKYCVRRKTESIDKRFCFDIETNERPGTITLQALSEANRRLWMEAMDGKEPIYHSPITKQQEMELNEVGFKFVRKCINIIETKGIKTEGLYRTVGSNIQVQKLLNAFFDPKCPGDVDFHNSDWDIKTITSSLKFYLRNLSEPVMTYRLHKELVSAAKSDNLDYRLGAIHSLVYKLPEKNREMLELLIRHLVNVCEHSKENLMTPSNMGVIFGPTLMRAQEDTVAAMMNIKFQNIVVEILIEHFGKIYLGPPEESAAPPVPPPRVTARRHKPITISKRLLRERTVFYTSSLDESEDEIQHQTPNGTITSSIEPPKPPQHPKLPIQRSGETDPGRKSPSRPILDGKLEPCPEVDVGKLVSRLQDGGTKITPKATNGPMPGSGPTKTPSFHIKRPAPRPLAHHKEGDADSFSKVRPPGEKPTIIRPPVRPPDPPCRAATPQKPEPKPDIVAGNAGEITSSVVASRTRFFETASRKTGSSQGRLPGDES
UniProt O75152: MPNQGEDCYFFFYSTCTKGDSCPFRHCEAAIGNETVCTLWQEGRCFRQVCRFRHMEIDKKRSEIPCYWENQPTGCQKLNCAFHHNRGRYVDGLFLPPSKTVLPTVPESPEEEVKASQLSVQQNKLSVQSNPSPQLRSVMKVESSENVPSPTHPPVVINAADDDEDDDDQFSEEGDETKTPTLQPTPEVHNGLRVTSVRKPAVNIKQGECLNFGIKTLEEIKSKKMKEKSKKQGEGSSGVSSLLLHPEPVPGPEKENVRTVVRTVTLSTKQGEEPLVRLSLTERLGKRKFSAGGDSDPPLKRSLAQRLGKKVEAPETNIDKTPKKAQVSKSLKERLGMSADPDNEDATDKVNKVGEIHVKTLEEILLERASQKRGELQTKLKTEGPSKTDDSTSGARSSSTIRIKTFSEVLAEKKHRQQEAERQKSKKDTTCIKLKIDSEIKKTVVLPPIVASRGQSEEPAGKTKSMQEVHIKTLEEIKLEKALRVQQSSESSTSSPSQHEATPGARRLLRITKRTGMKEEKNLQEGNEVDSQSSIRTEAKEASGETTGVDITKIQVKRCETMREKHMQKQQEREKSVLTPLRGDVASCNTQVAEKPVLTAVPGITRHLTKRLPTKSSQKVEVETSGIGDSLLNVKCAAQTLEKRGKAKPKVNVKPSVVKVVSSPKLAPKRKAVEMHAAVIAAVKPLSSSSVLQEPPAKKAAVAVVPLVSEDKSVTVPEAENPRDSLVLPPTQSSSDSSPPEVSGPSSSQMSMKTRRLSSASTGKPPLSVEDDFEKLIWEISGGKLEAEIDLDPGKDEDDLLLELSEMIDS
UniProt O60346: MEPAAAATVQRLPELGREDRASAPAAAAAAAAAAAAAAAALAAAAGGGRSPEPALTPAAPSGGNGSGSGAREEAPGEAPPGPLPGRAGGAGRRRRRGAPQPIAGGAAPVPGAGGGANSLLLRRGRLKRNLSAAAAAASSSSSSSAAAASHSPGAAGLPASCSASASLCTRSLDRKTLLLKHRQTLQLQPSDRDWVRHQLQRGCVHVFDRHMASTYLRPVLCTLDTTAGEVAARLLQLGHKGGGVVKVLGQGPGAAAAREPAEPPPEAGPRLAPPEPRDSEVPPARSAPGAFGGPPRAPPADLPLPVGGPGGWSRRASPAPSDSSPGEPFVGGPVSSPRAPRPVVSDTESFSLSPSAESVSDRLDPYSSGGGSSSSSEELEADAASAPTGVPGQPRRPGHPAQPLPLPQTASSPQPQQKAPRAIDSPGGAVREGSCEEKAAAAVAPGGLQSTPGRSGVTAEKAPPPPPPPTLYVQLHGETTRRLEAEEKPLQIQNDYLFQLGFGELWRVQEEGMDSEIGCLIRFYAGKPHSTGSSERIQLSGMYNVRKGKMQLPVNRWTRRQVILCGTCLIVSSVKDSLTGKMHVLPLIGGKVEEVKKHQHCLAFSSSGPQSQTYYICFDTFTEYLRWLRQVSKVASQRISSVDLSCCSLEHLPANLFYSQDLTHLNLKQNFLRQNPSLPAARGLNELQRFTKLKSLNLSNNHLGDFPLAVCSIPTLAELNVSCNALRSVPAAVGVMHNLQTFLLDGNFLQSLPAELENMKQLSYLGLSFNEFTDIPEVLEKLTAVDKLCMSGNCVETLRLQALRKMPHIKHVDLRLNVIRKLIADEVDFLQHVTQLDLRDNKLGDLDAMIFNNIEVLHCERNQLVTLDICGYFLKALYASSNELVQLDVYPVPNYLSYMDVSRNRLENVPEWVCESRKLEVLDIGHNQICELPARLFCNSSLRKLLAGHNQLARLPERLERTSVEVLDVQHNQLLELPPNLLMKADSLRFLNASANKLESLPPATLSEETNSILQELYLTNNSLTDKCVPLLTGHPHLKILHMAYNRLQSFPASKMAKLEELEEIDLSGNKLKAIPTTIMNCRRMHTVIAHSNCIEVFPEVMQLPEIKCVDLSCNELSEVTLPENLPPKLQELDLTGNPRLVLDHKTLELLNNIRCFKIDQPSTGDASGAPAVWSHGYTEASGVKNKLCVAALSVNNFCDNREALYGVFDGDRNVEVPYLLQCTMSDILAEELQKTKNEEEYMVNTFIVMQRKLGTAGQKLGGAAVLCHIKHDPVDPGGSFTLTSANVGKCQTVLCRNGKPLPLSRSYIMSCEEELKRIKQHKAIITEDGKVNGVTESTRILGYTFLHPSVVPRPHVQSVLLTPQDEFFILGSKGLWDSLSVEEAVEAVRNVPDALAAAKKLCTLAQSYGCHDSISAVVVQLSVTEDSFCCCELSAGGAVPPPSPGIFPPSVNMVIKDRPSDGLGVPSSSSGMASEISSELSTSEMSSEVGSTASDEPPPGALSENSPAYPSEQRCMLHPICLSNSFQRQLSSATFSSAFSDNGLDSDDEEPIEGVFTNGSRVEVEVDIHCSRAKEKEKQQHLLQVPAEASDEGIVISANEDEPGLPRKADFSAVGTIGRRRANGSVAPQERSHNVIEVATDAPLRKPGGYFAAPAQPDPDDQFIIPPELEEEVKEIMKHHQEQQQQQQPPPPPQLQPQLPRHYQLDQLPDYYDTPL
UniProt O43439: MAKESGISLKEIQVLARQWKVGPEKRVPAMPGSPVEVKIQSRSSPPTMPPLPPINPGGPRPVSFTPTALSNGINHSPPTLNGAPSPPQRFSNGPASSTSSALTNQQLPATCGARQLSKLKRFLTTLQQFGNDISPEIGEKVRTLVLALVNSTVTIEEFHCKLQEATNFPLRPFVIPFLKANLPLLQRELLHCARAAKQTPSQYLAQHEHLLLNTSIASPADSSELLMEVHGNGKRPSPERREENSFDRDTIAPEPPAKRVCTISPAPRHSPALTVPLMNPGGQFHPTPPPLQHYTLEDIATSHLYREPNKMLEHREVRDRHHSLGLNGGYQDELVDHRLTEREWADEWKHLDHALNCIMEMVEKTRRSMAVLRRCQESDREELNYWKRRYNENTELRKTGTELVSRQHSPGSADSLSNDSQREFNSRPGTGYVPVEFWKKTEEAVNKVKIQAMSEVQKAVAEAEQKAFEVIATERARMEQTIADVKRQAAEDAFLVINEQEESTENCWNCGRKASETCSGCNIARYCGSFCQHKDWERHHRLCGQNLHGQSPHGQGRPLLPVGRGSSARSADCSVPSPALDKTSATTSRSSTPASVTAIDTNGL

Each target was assayed with Cc1nc(Nc2ncc(C(=O)Nc3c(C)cccc3Cl)s2)cc(N2CCN(CCO)CC2)n1 [dasatinib] (assay: log2 fold change of tryptic peptide abundance, ligand vs vehicle (limited proteolysis) (log2 ratio); higher = more trypsin-susceptible (destabilized)). Settings: ligand concentration: 5 uM; sample: K562 cleared lysate.

Target | log2 fold change
SNX3 (peptide sequence: LKESTVRR, peptide start residue: 62) (UniProt O60493) | -1.15
UniProt O43318 (peptide sequence: KQLEVIR, peptide start residue: 590) | 0.289
EPB41L2 (peptide sequence: RIVITGDGDIDHDQALAQAIR, peptide start residue: 957) (UniProt O43491) | 0.403
PRPF40A (peptide sequence: KEEEESQPAKK, peptide start residue: 376) (UniProt O75400) | -0.11
SSNA1 (peptide sequence: CIEELCQKR, peptide start residue: 18) (UniProt O43805) | 0.653
OPHN1 (peptide sequence: TLTMTPMEQKPGAK, peptide start residue: 297) (UniProt O60890) | 0.73
ZC3H11A (peptide sequence: TEGPSKTDDSTSGAR, peptide start residue: 382) (UniProt O75152) | -0.72
PHLPP1 (peptide sequence: AIITEDGKVNGVTESTR, peptide start residue: 1324) (UniProt O60346) | 0.333
XPOT (peptide sequence: TYSDDHVK, peptide start residue: 46) (UniProt O43592) | -0.392
CBFA2T2 (peptide sequence: YCGSFCQHKDWER, peptide start residue: 526) (UniProt O43439) | -1.76

Random excerpt: 2 records from the list.
Target | log2 fold change
PHLPP1 (peptide sequence: AIITEDGKVNGVTESTR, peptide start residue: 1324) (UniProt O60346) | 0.333
XPOT (peptide sequence: TYSDDHVK, peptide start residue: 46) (UniProt O43592) | -0.392
